Results are given in words; binding and its absence hold for the method and conditions named. For some assays here: In cells and extracts the contact can be indirect. For some assays here: A result given as binding can be weak or reduced; the word gives no strength. For some assays here: Tags and fused reporters may be left off the sequences shown.
target: T1, FLAG-tagged CI subunit B14.7 (B14.7^FLAG) (Arabidopsis (Col-0)) (UniProt O48528); assay: co-IP
T1 sequence: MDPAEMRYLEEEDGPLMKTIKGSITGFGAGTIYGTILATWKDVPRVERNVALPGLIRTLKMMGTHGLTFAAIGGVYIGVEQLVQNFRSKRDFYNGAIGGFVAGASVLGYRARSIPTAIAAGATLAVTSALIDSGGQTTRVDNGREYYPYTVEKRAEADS

By UniProt entry, the sequences of proteins in these tests, tags left out. Where a name states a change or a piece, a line headed by the entry shows the natural chain unless it says otherwise.
UniProt Q9FJW4: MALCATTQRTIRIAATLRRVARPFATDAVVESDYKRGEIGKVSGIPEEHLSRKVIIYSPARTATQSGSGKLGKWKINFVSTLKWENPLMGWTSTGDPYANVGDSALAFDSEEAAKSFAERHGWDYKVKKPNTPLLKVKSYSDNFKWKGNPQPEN
UniProt Q9FGI6: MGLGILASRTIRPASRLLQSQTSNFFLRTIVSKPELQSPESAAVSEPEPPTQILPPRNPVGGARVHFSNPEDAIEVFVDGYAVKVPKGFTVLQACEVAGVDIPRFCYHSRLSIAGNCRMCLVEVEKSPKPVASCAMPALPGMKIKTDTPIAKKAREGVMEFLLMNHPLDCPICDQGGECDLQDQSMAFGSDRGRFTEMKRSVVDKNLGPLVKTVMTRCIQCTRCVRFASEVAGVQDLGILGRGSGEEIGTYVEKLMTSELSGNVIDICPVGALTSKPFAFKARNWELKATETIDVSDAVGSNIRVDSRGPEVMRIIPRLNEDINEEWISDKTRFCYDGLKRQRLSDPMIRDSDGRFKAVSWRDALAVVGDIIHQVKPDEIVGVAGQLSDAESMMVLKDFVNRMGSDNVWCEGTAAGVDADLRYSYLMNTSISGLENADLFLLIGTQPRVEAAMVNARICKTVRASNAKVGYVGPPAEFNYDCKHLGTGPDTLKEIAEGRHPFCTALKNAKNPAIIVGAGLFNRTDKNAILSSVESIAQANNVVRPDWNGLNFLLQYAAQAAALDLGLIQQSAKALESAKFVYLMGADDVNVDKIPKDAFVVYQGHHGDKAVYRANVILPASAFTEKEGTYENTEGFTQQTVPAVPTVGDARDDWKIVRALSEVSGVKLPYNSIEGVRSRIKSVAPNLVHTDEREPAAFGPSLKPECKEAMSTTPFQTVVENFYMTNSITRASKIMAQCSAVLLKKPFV
UniProt P83483: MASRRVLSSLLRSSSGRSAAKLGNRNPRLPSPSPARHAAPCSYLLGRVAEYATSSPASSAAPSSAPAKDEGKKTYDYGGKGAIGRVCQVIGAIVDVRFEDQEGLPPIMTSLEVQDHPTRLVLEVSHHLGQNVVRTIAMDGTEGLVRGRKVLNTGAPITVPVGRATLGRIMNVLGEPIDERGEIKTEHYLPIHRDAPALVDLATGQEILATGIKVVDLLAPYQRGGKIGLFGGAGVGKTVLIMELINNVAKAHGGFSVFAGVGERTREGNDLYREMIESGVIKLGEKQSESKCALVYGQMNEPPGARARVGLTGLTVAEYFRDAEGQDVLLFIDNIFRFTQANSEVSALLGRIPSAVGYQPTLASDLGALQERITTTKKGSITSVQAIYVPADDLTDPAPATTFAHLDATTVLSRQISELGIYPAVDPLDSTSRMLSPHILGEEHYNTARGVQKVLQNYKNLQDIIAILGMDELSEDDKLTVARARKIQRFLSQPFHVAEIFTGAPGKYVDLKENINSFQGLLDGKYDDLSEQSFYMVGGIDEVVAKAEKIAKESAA
UniProt Q9C6B3: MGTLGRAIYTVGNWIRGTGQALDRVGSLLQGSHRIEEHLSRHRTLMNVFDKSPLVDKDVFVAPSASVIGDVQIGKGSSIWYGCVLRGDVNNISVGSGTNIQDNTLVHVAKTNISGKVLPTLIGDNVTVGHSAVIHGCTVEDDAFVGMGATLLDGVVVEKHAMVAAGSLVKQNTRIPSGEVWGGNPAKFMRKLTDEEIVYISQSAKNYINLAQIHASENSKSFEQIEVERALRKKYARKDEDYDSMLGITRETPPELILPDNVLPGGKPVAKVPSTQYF
UniProt Q9FMV1: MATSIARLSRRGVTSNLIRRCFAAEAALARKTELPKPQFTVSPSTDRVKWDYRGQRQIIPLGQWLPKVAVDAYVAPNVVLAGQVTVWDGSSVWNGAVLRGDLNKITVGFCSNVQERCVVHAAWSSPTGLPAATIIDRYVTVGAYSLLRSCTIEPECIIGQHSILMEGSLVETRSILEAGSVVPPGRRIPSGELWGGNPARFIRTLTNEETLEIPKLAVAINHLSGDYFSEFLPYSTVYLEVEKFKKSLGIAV
UniProt Q94JS0: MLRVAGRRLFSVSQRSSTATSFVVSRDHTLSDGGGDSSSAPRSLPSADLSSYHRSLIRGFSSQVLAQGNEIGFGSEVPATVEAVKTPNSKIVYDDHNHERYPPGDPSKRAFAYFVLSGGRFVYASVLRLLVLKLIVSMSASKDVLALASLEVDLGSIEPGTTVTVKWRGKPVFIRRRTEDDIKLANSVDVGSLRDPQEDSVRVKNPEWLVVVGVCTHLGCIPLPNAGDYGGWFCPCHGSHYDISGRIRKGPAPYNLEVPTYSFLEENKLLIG
UniProt Q42577: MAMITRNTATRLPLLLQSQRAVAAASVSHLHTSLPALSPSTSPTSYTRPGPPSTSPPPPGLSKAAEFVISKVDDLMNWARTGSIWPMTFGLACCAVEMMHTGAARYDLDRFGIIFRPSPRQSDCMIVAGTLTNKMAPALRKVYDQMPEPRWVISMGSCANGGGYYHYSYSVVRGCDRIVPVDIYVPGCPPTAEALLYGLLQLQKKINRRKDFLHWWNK
UniProt Q84WU8: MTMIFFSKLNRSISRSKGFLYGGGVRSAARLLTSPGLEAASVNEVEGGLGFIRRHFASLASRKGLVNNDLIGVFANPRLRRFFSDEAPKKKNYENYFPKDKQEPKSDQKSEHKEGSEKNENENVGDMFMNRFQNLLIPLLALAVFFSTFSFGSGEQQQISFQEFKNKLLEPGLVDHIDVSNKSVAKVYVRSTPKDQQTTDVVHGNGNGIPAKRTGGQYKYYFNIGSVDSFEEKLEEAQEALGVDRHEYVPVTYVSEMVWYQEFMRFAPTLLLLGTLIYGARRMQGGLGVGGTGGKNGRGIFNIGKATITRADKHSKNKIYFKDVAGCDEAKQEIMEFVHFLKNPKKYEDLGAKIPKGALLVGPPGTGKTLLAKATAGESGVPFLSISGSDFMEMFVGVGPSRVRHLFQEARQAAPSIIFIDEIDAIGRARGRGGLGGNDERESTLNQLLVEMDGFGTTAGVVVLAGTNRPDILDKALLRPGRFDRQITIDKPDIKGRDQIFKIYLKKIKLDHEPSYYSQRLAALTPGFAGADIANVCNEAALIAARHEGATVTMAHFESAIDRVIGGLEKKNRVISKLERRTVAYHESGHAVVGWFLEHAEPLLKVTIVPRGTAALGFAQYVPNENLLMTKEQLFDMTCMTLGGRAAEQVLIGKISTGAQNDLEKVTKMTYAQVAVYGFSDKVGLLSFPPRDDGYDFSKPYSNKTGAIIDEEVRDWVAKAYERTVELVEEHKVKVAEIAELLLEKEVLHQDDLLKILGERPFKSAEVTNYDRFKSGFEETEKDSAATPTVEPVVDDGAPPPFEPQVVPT

Row | Substance | binding
1 | 18 kD (NDUFS4) complex I subunit (from UniProt Q9FJW4) | binds
2 | 75 kD complex I subunit (from UniProt Q9FGI6) | binds
3 | ATP synthase subunit-β (ATPβ) (from UniProt P83483) | no binding
4 | CA2 complex I subunit (from UniProt Q9C6B3) | binds
5 | CAL1 complex I subunit (from UniProt Q9FMV1) | binds
6 | PSST, 20 kD complex I Q-module subunit | binds
7 | Rieske iron-sulfur protein (RISP), complex III subunit (from UniProt Q94JS0) | no binding

target: PSST, yeast two-hybrid fusion (Arabidopsis (Col-0)) (UniProt Q42577); assay: two-hybrid

Row | Substance | binding
8 | FTSH3^TRAP/P415L, yeast two-hybrid fusion (from UniProt Q84WU8 1-809) (enzyme) | no binding

From article doi:10.1101/2023.02.23.529725
